Where a name gives a salt, the structure may show the parent alone. The list shows a part of the results. Single values are uncertain, as repeats are few or missing.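 Primary human fetal astrocytes engulfed labelled rat cortical synaptosomes, measured as a red/green ratio corrected for calcein live-cell signal and scaled to the plate median. Toxicity meant calcein falling over 30%; decreased phagocytosis meant below 70% of median above 5 µM.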
Columns and labels:
Human fetal astrocytes [1] = assay: loss of total cells relative to no-compound high-control median (toxicity); higher = more toxic (fewer cells); details: 24 h
Human fetal astrocytes [2] = assay: synaptosome phagocytosis (pHrodo/calcein intensity ratio) relative to plate median of data wells; higher = more phagocytosis; details: 24 h

Row | SMILES | loss of total cells (Human fetal astrocytes [1]; 1.39 µM) [%] | loss of total cells (Human fetal astrocytes [1]; 2.78 µM) [%] | loss of total cells (Human fetal astrocytes [1]; 5.56 µM) [%] | loss of total cells (Human fetal astrocytes [1]; 11.11 µM) [%] | loss of total cells (Human fetal astrocytes [1]; 22.22 µM) [%] | synaptosome phagocytosis (Human fetal astrocytes [2]; 1.39 µM) [%] | synaptosome phagocytosis (Human fetal astrocytes [2]; 2.78 µM) [%] | synaptosome phagocytosis (Human fetal astrocytes [2]; 5.56 µM) [%] | synaptosome phagocytosis (Human fetal astrocytes [2]; 11.11 µM) [%] | synaptosome phagocytosis (Human fetal astrocytes [2]; 22.22 µM) [%]
1 | CC(C)NC(=N)NC(=N)Nc1ccc(Cl)cc1 | 19.1 | 2.1 | 17.7 | 24.2 | 27.2 | 100 | 122 | 102 | 78.8 | 79.7
2 | O=c1cc(-c2ccccc2)oc2cc(O)c(O)c(O)c12 | 4.9 | 19.9 | 13.2 | 50 | 43.7 | 94.3 | 109 | 89.9 | 117 | 68.6
3 | CC(N)CCCC(C)(C)O (stereo not given) | 11.2 | 11.2 | 9.4 | 5.4 | 22 | 77.4 | 127 | 152 | 119 | 119
4 | CC(C)NCC(O)COc1cccc2[nH]ccc12 (stereo not given) [Pindolol] | 5.6 | -13.9 | -20.9 | -1.4 | 40.4 | 76.1 | 74.3 | 94.6 | 106 | 104
5 | CC(C)(C)NC(=O)[C@H]1CC[C@H]2[C@@H]3CC[C@H]4NC(=O)C=C[C@]4(C)[C@H]3CC[C@]12C | -25.7 | 2.7 | 0.3 | -0.8 | 21 | 105 | 106 | 103 | 95.7 | 82.2
6 | C=C(C)[C@@H]1CC=C(CO)CC1 | -9.8 | 0.4 | 10.3 | -2 | -2.2 | 99.9 | 96.2 | 105 | 98.4 | 75.9
7 | CC[C@H]1OC(=O)[C@H](C)[C@@H](O[C@H]2C[C@@](C)(OC)[C@@H](O)[C@H](C)O2)[C@H](C)[C@@H](O[C@@H]2O[C@H](C)C[C@H](N(C)C)[C@H]2O)[C@](C)(OC)C[C@@H](C)C(=O)[C@H](C)[C@@H](O)[C@]1(C)O | -4.1 | -5.8 | 18.3 | -14.1 | 18.7 | 115 | 115 | 128 | 114 | 111
8 | COc1ccc(-c2oc3c(CC=C(C)C)c(O[C@@H]4O[C@H](CO)[C@@H](O)[C@H](O)[C@H]4O)cc(O)c3c(=O)c2O[C@@H]2O[C@@H](C)[C@H](O)[C@@H](O)[C@H]2O)cc1 | -20.5 | 1.8 | -16.1 | 8.8 | 3.7 | 78.7 | 126 | 70.8 | 119 | 83
9 | CC(=O)N[C@@H](Cc1c[nH]c2ccccc12)C(N)=O | 7.6 | 19.9 | 22.5 | 4.6 | 28.8 | 143 | 106 | 134 | 103 | 178
10 | CC1(C)S[C@@H]2[C@H](NC(=O)C(C(=O)O)c3ccccc3)C(=O)N2[C@H]1C(=O)O (stereo not given in full) | -19.1 | -11.3 | -3.9 | -18 | 0 | 115 | 114 | 91.1 | 98.6 | 109
11 | CC(C)c1nc(N(C)S(C)(=O)=O)nc(-c2ccc(F)cc2)c1/C=C/[C@@H](O)C[C@@H](O)CC(=O)O | -39.5 | -27.8 | 12.4 | 2.3 | 7.2 | 120 | 82 | 91 | 86.9 | 90.5
12 | Cc1cccc(N(C)C(=S)Oc2ccc3ccccc3c2)c1 | -23.2 | -7.6 | -8.1 | -10.2 | 33.4 | 114 | 104 | 96.8 | 111 | 75.1
13 | CCc1cn([C@H]2C[C@H](O)[C@@H](CO)O2)c(=O)[nH]c1=O | -29.8 | 14.3 | -4.3 | 35.7 | 17.1 | 81.7 | 104 | 87.3 | 108 | 104
14 | COc1cc(-c2coc3cc(OCc4ccccc4)c(OC)c(O)c3c2=O)cc(OCc2ccccc2)c1OC | -22.8 | 2.7 | 39.7 | -5.2 | 24.8 | 109 | 113 | 93.9 | 111 | 145
15 | Cn1c(=O)[nH]c(=O)c2[nH]cnc21 | -13.9 | -9.7 | -5.1 | 8.8 | 15.6 | 116 | 81.1 | 104 | 110 | 105
16 | COC(=O)C[C@H]1C2(C)CC34OC5(C)O[C@@]6([C@H](OC)C(OC(=O)C(C)C)[C@]7(C)C(/C(=C(/OC)C(C)C)C(=O)O[C@H]7c7ccoc7)[C@@]6(O5)[C@H](OC)[C@@]3(OC)C2OC(C)=O)[C@]14C (stereo not given in full) | 23.6 | -10.6 | -26.7 | 37.4 | 1.9 | 120 | 93.2 | 88.4 | 124 | 97.3
17 | CCNC(=O)CC[C@H](N)C(=O)O | -18 | -10.5 | -7.3 | 2 | 3 | 105 | 122 | 127 | 81.3 | 122
18 | C[C@]12C=CC(=O)C=C1CC[C@@H]1[C@@H]2[C@@H](O)C[C@@]2(C)[C@H]1CC[C@]2(O)C(=O)CO | -1.5 | -11.9 | -18.8 | 1.4 | 23.4 | 121 | 98.8 | 88.2 | 128 | 112
19 | Oc1ccc([C@H]2Oc3cc(O)cc(O)c3C[C@H]2O)cc1 | -28.6 | 10.6 | -5.3 | 7.7 | 4.8 | 196 | 184 | 120 | 114 | 90.3
20 | CNC(=C[N+](=O)[O-])NCCSCc1csc(CN(C)C)n1 | 8.3 | 12 | 35.1 | 32.3 | -24.8 | 72.9 | 107 | 159 | 109 | 102

Row | SMILES | loss of total cells (Human fetal astrocytes [1]; 1.39 µM) [%] | loss of total cells (Human fetal astrocytes [1]; 2.78 µM) [%] | loss of total cells (Human fetal astrocytes [1]; 5.56 µM) [%] | loss of total cells (Human fetal astrocytes [1]; 11.11 µM) [%] | loss of total cells (Human fetal astrocytes [1]; 22.22 µM) [%] | synaptosome phagocytosis (Human fetal astrocytes [2]; 1.39 µM) [%] | synaptosome phagocytosis (Human fetal astrocytes [2]; 2.78 µM) [%] | synaptosome phagocytosis (Human fetal astrocytes [2]; 5.56 µM) [%] | synaptosome phagocytosis (Human fetal astrocytes [2]; 11.11 µM) [%] | synaptosome phagocytosis (Human fetal astrocytes [2]; 22.22 µM) [%]
21 | COc1cccc(-c2cc(=O)c3cc(OC)ccc3o2)c1 | -12.3 | 4 | 8.8 | 14.2 | 4.4 | 95.5 | 113 | 123 | 103 | 109
22 | CCCC(=O)O[C@]1(C(=O)CO)CC[C@H]2[C@@H]3CCC4=CC(=O)CC[C@]4(C)[C@H]3[C@@H](O)C[C@@]21C | 17.7 | -16.7 | 12.4 | -8.2 | 25.9 | 87.5 | 114 | 102 | 66.4 | 106
23 | CC(=O)OCC(=O)[C@@]1(O)[C@H](C)C[C@H]2[C@@H]3CCC4=CC(=O)C=C[C@]4(C)[C@@]3(F)[C@@H](O)C[C@@]21C | 0.9 | -41.7 | -23 | -25.1 | -15.5 | 93.7 | 106 | 113 | 106 | 93.5
24 | N=C(N)NC(=O)c1nc(Cl)c(N2CCCCCC2)nc1N | -12.3 | 0.4 | 2.9 | 20.9 | 20 | 108 | 86.7 | 99.7 | 59.5 | 98.2
25 | CCN1CCCC(OC(=O)C(c2ccccc2)c2ccccc2)C1 (stereo not given) | 7.3 | -14.3 | 9.9 | -3 | 7.8 | 120 | 115 | 82.1 | 90 | 107
26 | CC12CCC(CC1=O)C2(C)C (stereo not given) | -14.1 | 0.3 | -8.1 | -6.3 | -6.8 | 111 | 102 | 103 | 151 | 95.5
27 | COc1ccc2c(c1)OCC(Cc1ccc(O)c(OC)c1)C2=O (stereo not given) | -3.3 | -3.3 | 30.5 | 25.8 | 35.9 | 146 | 84.7 | 155 | 54 | 156
28 | CC1(C)O[C@@H]2[C@@H](CO[C@@]3(COS(N)(=O)=O)OC(C)(C)O[C@@H]23)O1 | -17.4 | -3.4 | -0.3 | -29.7 | 3.4 | 108 | 114 | 99.3 | 136 | 101
29 | C/C(=C(\CCOP(=O)(O)O)SC(=O)c1ccccc1)N(C=O)Cc1cnc(C)nc1N | 17 | -67.5 | 9.4 | 23 | 9.1 | 97.5 | 14.8 | 95 | 100 | 96.8
30 | Oc1c(Br)cc(Br)c2cccnc12 | 1.8 | 18.4 | 15.2 | 13.8 | 34.1 | 76.2 | 113 | 84.9 | 83.6 | 48.2
31 | N=C(N)N1CCc2ccccc2C1 | -27.4 | -11.3 | -8.1 | -24.2 | -18.1 | 74.4 | 90.9 | 92.6 | 90.7 | 93
32 | CC(C)(N=NC(C)(C)C(=N)N)C(=N)N [2,2'-azobis[2-amidinopropane]dihydrochloride] | -9 | 5.4 | -5.1 | 3.4 | 28.1 | 115 | 91.6 | 103 | 82.8 | 123
33 | NC(=O)C1(N2CCCCC2)CCN(CCCC(=O)c2ccc(F)cc2)CC1 | -41.1 | 19 | -10.6 | 47.5 | -0.9 | 112 | 104 | 90.9 | 154 | 114
34 | CC1(C)C(=O)[C@H]2C[C@]3(O)C4=CC(=O)O[C@@H](c5ccoc5)[C@@]4(C)CCC3[C@](C)(C2=O)[C@H]1CC(=O)O (stereo not given in full) | -4.7 | -6.6 | 36.6 | 43.9 | 0.4 | 110 | 97.7 | 146 | 96.6 | 117
35 | O=C(O)[C@]1(O)C[C@@H](O)[C@@H](O)[C@H](O)C1 | -4.9 | -4.7 | 0.7 | -5.4 | 3.7 | 105 | 105 | 92.2 | 124 | 97.5
36 | CS(=O)(=O)OCCCCOS(C)(=O)=O [GT 41 X 149 Mablin CB 2041 G.T. 41 GT 2041 Mileran Myleran] | -17.4 | -10.7 | 8.1 | -18 | 19.3 | 89.2 | 91 | 93.7 | 118 | 89.7
37 | OC[C@@H](O)[C@@H](O)C(O)[C@H](O)[C@@H](O)CO (stereo not given in full) | 1.1 | 2 | 35.9 | 45.8 | -1.1 | 108 | 103 | 144 | 128 | 124
38 | CC(C)Nc1ncccn1 | 42.2 | 8.3 | 2.2 | -3.8 | 0.8 | 65.7 | 135 | 75.4 | 99.7 | 130
39 | COc1ccc(-c2c(O)c3c(OC)c4c(cc3oc2=O)OC(C)(C)C=C4)cc1 | 31.5 | 17.9 | 0.8 | 35.5 | -0.4 | 127 | 108 | 81.4 | 143 | 116
40 | CC[C@H]1OC(=O)[C@H](C)[C@@H](O[C@H]2C[C@@](C)(OC)[C@@H](O)[C@H](C)O2)[C@H](C)[C@@H](O[C@@H]2O[C@H](C)C[C@H](N(C)C)[C@H]2O)[C@](C)(O)C[C@@H](C)/C(=N\OCOCCOC)[C@H](C)[C@@H](O)[C@]1(C)O | 5.6 | -27 | 5 | 18 | 0.9 | 143 | 119 | 108 | 143 | 114

Part of the list above in a different format.
Row	SMILES	loss of total cells (Human fetal astrocytes [1]; 1.39 µM) [%]	loss of total cells (Human fetal astrocytes [1]; 2.78 µM) [%]	loss of total cells (Human fetal astrocytes [1]; 5.56 µM) [%]	loss of total cells (Human fetal astrocytes [1]; 11.11 µM) [%]	loss of total cells (Human fetal astrocytes [1]; 22.22 µM) [%]	synaptosome phagocytosis (Human fetal astrocytes [2]; 1.39 µM) [%]	synaptosome phagocytosis (Human fetal astrocytes [2]; 2.78 µM) [%]	synaptosome phagocytosis (Human fetal astrocytes [2]; 5.56 µM) [%]	synaptosome phagocytosis (Human fetal astrocytes [2]; 11.11 µM) [%]	synaptosome phagocytosis (Human fetal astrocytes [2]; 22.22 µM) [%]
22	CCCC(=O)O[C@]1(C(=O)CO)CC[C@H]2[C@@H]3CCC4=CC(=O)CC[C@]4(C)[C@H]3[C@@H](O)C[C@@]21C	17.7	-16.7	12.4	-8.2	25.9	87.5	114	102	66.4	106
39	COc1ccc(-c2c(O)c3c(OC)c4c(cc3oc2=O)OC(C)(C)C=C4)cc1	31.5	17.9	0.8	35.5	-0.4	127	108	81.4	143	116
